Laboratory results as given in PubChem BioAssay AID192 (DTP/NCI, 2004).
The list shows only some results of the screen, not a fair sample: it gathers tests that were run many times, whatever their T/C, doses with no T/C, and many T/C values between a quarter and a half above the control. Other doses and runs of a compound stand elsewhere. T/C: endpoint of the treated group in % of that of the vehicle group. Some entries give survivors of the animals treated and no T/C: the source files T/C as zero there, which appears to mark a toxic dose or a test without result, not a measured value. Some survivor counts are full or nearly so, which does not show that the dose was tolerated: survival well below the control is almost never listed, so the zero probably covers shortened survival too. Survivors were counted at the toxicity check, usually on the fifth day, unless a day is given; later deaths do not show. Schedules are NCI's codes, read here as Q, the interval in days (D) or hours (H), X, the number of doses. Some doses were run more than once; their values stand side by side, smallest first. For survival time, this PubChem deposit counts one and a half times the control or more as active, and values a quarter to a half above the control carry no call in these data; other NCI protocols may use other cut-offs. Some T/C values are followed by the survivors on the day toxicity was checked, most often the fifth; without a count, all were alive then. Marks such as (2×) give the number of equal values in this list.

System: BDF1 mice, B16 melanoma ip, median survival T/C
Test: NCI In Vivo Anticancer Drug Screen. Data for tumor model B16 Melanoma (intraperitoneal) in B6D2F1 (BDF1) mice
Details: T/C endpoint: median survival time, higher T/C = longer survival
Procedure, shortened: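 Mice with transplantable tumors; drug vs vehicle groups; endpoint survival or tumor size; value = T/C.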

[1] = dose: 12.5 mg/kg/injection, schedule: Q01DX009 (ip), vehicle: saline
[2] = dose: 25.0 mg/kg/injection, schedule: Q01DX009 (ip), vehicle: saline
[3] = dose: 50.0 mg/kg/injection, schedule: Q01DX009 (ip), vehicle: saline
[4] = dose: 100.0 mg/kg/injection, schedule: Q01DX009 (ip), vehicle: saline
[5] = dose: 200.0 mg/kg/injection, schedule: Q01DX009 (ip), vehicle: saline
[6] = dose: 400.0 mg/kg/injection, schedule: Q01DX009 (ip), vehicle: Klucel (hydroxypropylcellulose) (HPC)
[7] = dose: 200.0 mg/kg/injection, schedule: Q01DX009 (ip), vehicle: saline with Tween-80
[8] = dose: 400.0 mg/kg/injection, schedule: Q01DX009 (ip), vehicle: saline with Tween-80
[9] = dose: 5.0 mg/kg/injection, schedule: Q01DX009 (ip), vehicle: saline
[10] = dose: 100.0 mg/kg/injection, schedule: Q01DX009 (ip), vehicle: Klucel (hydroxypropylcellulose) (HPC)
[11] = dose: 50.0 mg/kg/injection, schedule: Q01DX009 (ip), vehicle: Klucel (hydroxypropylcellulose) (HPC)
[12] = dose: 100.0 mg/kg/injection, schedule: Q01DX009 (ip), vehicle: saline with Tween-80
[13] = dose: 400.0 mg/kg/injection, schedule: Q01DX009 (ip), vehicle: saline
[14] = dose: 200.0 mg/kg/injection, schedule: Q01DX009 (ip), vehicle: Klucel (hydroxypropylcellulose) (HPC)
[15] = dose: 25.0 mg/kg/injection, schedule: Q01DX009 (ip), vehicle: Klucel (hydroxypropylcellulose) (HPC)

For `CN(N=O)C(=O)N[C@@H](C=O)[C@@H](O)[C@H](O)[C@H](O)CO`, the T/C [1] was 100, 105, 107, 108, 111 (2×), 129 % of control, the T/C (dose: 25.0 mg/kg/injection, schedule: Q01DX009 (ip), vehicle: saline sonified) was 129 % of control and the T/C [2] was 95, 107, 113, 121, 123, 130, 142 % of control. For the same compound, the T/C (dose: 33.3 mg/kg/injection, schedule: Q01DX009 (ip), vehicle: other) was 127 % of control, the T/C (dose: 50.0 mg/kg/injection, schedule: Q01DX009 (ip), vehicle: other) was 131 (2×), 134, 135 % of control [9 of 10 alive] and the T/C (dose: 50.0 mg/kg/injection, schedule: Q01DX009 (ip), vehicle: saline sonified) was 129 % of control. The T/C [3] was 100 [9 of 10 alive], 115, 123, 124, 127, 138, 143 % of control, the survivor count (dose: 75.0 mg/kg/injection, schedule: Q01DX009 (ip), vehicle: other) was 10 of 10 and the T/C (dose: 75.0 mg/kg/injection, schedule: Q04DX003 (ip), vehicle: saline) was 126 % of control. The survivor count (dose: 100.0 mg/kg/injection, schedule: Q01DX009 (ip), vehicle: citric acid) was 10 of 10, the survivor count (dose: 100.0 mg/kg/injection, schedule: Q01DX009 (ip), vehicle: other) was 9 of 10 and 10 of 10 and the survivor count (dose: 100.0 mg/kg/injection, schedule: Q01DX009 (ip), vehicle: saline sonified) was 6 of 6. For the same compound, the T/C [4] was 107, 115, 117, 129, 181 % of control, the survivor count [4] was 10 of 10 and 6 of 6 and the T/C (dose: 150.0 mg/kg/injection, schedule: Q04DX003 (ip), vehicle: saline) was 138 % of control [8 of 9 alive]. For the same compound, the survivor count (dose: 200.0 mg/kg/injection, schedule: Q01DX009 (ip), vehicle: citric acid) was 6 of 10, the survivor count (dose: 200.0 mg/kg/injection, schedule: Q01DX009 (ip), vehicle: other) was 2 of 10 and 3 of 10 and the survivor count (dose: 200.0 mg/kg/injection, schedule: Q01DX009 (ip), vehicle: saline sonified) was 1 of 6. The survivor count [5] was 4 of 10, 8 of 10, 9 of 10, 10 of 10 and the survivor count (dose: 400.0 mg/kg/injection, schedule: Q01DX009 (ip), vehicle: citric acid) was 0 of 10.
`CC12C=CC(=O)C=C1CCC1C2C(O)CC2(C)C1CCC2(O)C(=O)COC(=O)CCCc1ccc(N(CCCl)CCCl)cc1` (configuration not stated) was tested, and the T/C (dose: 20.0 mg/kg/injection, schedule: Q01DX011 (ip), vehicle: saline) was 126 % of control.
With `CN(C)CCOCCOC(=O)N1c2ccccc2Sc2ccccc21` the survivor count [4] was 8 of 10.
In the case of `O=Nc1ccc(O)c(=O)cc1`, the survivor count (dose: 4.0 mg/kg/injection, schedule: Q01DX009 (ip), vehicle: saline with Tween-80) was 10 of 10.
`Cc1cc(C)c(NC(=O)Nc2ccc(Cl)cc2)c(C)c1` was tested, and the survivor count [6] was 9 of 10.
For `COc1cccc2c1C(=N)c1c(O)c3c(c(O)c1C2=O)C[C@@](O)(C(=O)CO)C[C@@H]3OC1CC(N)C(O)C(C)O1` (some centres not stated), the survivor count (dose: 200.0 mg/kg/injection, schedule: Q01DX001 (ip), vehicle: water) was 9 of 10 and the survivor count (dose: 400.0 mg/kg/injection, schedule: Q01DX001 (ip), vehicle: water) was 7 of 10.
With `CC(C)(C)OC(=O)NC(CCCCNC(=O)OCc1ccccc1)C(=O)O` (configuration not stated) the survivor count [7] was 10 of 10 and the survivor count [8] was 10 of 10.
For `COC(=O)/C(C)=C/C=C/C(OC)C(OC(N)=O)/C(C)=C/C(C)C(O)C(CC(C)CC1=C(N)C(=O)C=C(N)C1=O)OC` (configuration not stated), the survivor count (dose: 200.0 mg/kg/injection, schedule: Q01DX005 (ip), vehicle: other) was 10 of 10.
In the case of `NCCC(O)C(=O)NC1CC(N)C(OC2OC(CO)C(O)C(O)C2N)C(OC2OC(CO)C(O)C2O)C1O` (configuration not stated), the T/C [9] was 128 % of control.
In the case of `CCCC(OC(C)=O)C(Cl)(Cl)Cl` (configuration not stated), the survivor count [10] was 9 of 10.
`NC(=S)SCCC(=O)O` was tested, and the survivor count [6] was 6 of 10.
With `Cc1ccc(NC(=O)Nc2cccc3ccccc23)c(C)c1` the survivor count [6] was 10 of 10.
`CCCCCCCCCCCCCOC(=O)CC(C(=O)OCCCCCCCCCCCCC)S(=O)(=O)O` (configuration not stated) was tested, and the T/C [11] was 145 % of control and the T/C [10] was 135 % of control.
`N#CC1C(=O)c2ccccc2C1=O` was tested, and the survivor count [12] was 9 of 10.
In the case of `CN(C)CCC(c1ccccc1)c1cc(Cl)ccn1` (configuration not stated), the survivor count [5] was 0 of 10 and the survivor count [13] was 0 of 10.
For `CC(C)C1OC(=O)/C=C/C=C/C=C/C=C/C=C/CC(O)C(C)C(O)CC(O)CC(O)CC(O)CC(O)CC(O)CC(O)/C=C/C1C` (configuration not stated), the survivor count [1] was 9 of 10 and the survivor count [2] was 0 of 10.
In the case of `CCNCC#CCNCC`, the survivor count [5] was 8 of 10.
For `O=C(CN1CCCCC1)Nc1cccc(C(F)(F)F)c1`, the survivor count [6] was 8 of 10.
In the case of `CCC(C)C(C(=O)OC1CCN(C)CC1)c1ccccc1` (configuration not stated), the survivor count [4] was 8 of 10.
With `CC1(C)OC(CI)C(COS(C)(=O)=O)O1` (configuration not stated) the survivor count [12] was 5 of 10 and the survivor count [7] was 6 of 10.
In the case of `CCC(=O)Nc1ccc(F)cc1`, the survivor count [10] was 10 of 10, the survivor count [14] was 10 of 10 and the survivor count [6] was 10 of 10.
In the case of `NC(=O)C(O)C(O)C(O)C(O)C(N)=O` (configuration not stated), the T/C [3] was 126 % of control.
`COc1ccc2nc3ccccc3c(NCCNCCO)c2c1` was tested, and the T/C [9] was 125 % of control and the survivor count (dose: 20.0 mg/kg/injection, schedule: Q01DX009 (ip), vehicle: saline) was 10 of 10.
With `c1ccc([As+](c2ccccc2)(c2ccccc2)c2ccccc2)cc1` the survivor count (dose: 7.5 mg/kg/injection, schedule: Q01DX009 (ip), vehicle: Klucel (hydroxypropylcellulose) (HPC)) was 10 of 10.
For `O=C(Oc1ccc(Cl)cc1Cl)c1ccc([N+](=O)[O-])cc1`, the survivor count [11] was 10 of 10, the survivor count [10] was 10 of 10 and the survivor count [14] was 10 of 10. The survivor count [6] was 9 of 10.
In the case of `Cc1ccc(S(=O)(=O)N/N=C/c2ccccc2Cl)cc1`, the survivor count [15] was 10 of 10.
With `O=c1[nH]c(=O)n(C2CC(O)C(CO)O2)cc1C(F)(F)F` (configuration not stated) the survivor count (dose: 40.0 mg/kg/injection, schedule: Q01DX009 (ip), vehicle: saline) was 0 of 6, the survivor count (dose: 80.0 mg/kg/injection, schedule: Q01DX009 (ip), vehicle: saline) was 0 of 6 and the survivor count [4] was 10 of 10. The survivor count (dose: 160.0 mg/kg/injection, schedule: Q01DX009 (ip), vehicle: saline) was 0 of 6, the survivor count [5] was 10 of 10 and the survivor count [13] was 10 of 10.
In the case of `N=C(N)Sc1ccccn1`, the survivor count [5] was 10 of 10, the survivor count (dose: 200.0 mg/kg/injection, schedule: Q01DX009 (ip), vehicle: suspension in saline) was 10 of 10 and the survivor count [13] was 9 of 10. For the same compound, the survivor count (dose: 400.0 mg/kg/injection, schedule: Q01DX009 (ip), vehicle: suspension in saline) was 1 of 10.
In the case of `CCCCN(C)N=Nc1c(C(N)=O)n[nH]c1C`, the survivor count [12] was 9 of 10 and the survivor count (dose: 400.0 mg/kg/injection, schedule: Q04DX003 (ip), vehicle: saline with Tween-80) was 8 of 10.
For `COc1cccc2c1C(=O)c1c(O)c3c(c(O)c1C2=O)C[C@@](O)(/C(C)=N\NC=O)C[C@@H]3OC1CC(N)C(O)C(C)O1` (some centres not stated), the survivor count (dose: 24.0 mg/kg/injection, schedule: Q01DX009 (ip), vehicle: saline) was 10 of 10.
With `COC(=O)c1cc([N+](=O)[O-])cc([N+](=O)[O-])c1Br` the survivor count (dose: 3.0 mg/kg/injection, schedule: Q01DX009 (ip), vehicle: Klucel (hydroxypropylcellulose) (HPC)) was 10 of 10, the survivor count (dose: 6.0 mg/kg/injection, schedule: Q01DX009 (ip), vehicle: Klucel (hydroxypropylcellulose) (HPC)) was 10 of 10 and the survivor count (dose: 12.0 mg/kg/injection, schedule: Q01DX009 (ip), vehicle: Klucel (hydroxypropylcellulose) (HPC)) was 10 of 10. The survivor count (dose: 12.5 mg/kg/injection, schedule: Q01DX009 (ip), vehicle: Klucel (hydroxypropylcellulose) (HPC)) was 10 of 10, the survivor count [15] was 10 of 10 and the survivor count [11] was 10 of 10.
For `CC/C(C)=C(/C(=O)O)c1ccccc1`, the survivor count [8] was 10 of 10.
